Reference: the supplement of paper PMC10849652
Some of the results follow.

Amino acid sequences for entries named in this document (tags omitted). A change or cut given only in a name is not applied to a line headed by its entry.
UniProt Q14203, whole entry, looked up: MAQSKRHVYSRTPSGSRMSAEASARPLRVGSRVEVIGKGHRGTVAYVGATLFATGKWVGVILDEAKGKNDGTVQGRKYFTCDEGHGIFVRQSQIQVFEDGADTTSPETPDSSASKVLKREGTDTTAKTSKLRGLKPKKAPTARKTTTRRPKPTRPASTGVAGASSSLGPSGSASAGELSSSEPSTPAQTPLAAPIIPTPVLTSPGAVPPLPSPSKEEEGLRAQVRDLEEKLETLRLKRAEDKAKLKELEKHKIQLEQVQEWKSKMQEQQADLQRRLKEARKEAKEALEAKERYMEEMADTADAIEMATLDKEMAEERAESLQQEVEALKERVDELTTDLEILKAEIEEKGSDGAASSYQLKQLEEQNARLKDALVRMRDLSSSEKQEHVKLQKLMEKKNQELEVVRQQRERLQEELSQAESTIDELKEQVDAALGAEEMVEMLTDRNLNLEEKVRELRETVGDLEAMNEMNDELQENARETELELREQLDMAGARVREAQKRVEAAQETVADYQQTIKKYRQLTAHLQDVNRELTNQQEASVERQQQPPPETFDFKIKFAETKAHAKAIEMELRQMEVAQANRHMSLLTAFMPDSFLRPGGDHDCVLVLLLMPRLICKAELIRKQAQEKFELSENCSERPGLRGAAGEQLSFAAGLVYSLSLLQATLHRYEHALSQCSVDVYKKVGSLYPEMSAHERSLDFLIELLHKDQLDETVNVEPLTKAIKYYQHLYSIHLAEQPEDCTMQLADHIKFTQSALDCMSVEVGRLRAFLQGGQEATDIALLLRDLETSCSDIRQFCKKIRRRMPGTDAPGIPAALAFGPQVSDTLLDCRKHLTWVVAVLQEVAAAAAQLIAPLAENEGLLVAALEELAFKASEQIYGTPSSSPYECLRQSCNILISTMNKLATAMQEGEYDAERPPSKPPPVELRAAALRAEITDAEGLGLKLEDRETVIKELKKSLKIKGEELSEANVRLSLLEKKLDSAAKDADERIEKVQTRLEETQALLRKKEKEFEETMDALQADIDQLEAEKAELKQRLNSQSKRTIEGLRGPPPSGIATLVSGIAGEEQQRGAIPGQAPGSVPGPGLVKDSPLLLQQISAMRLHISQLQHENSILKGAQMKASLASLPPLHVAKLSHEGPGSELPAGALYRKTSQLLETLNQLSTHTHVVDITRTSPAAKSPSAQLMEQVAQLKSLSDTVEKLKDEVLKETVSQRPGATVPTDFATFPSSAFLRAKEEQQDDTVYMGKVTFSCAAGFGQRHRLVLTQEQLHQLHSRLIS
UniProt P32321: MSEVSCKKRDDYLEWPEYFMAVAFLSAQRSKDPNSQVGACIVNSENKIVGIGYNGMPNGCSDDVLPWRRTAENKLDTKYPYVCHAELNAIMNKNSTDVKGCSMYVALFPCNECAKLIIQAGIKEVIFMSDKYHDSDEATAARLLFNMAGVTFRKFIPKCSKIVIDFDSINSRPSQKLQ
UniProt Q9UJV9: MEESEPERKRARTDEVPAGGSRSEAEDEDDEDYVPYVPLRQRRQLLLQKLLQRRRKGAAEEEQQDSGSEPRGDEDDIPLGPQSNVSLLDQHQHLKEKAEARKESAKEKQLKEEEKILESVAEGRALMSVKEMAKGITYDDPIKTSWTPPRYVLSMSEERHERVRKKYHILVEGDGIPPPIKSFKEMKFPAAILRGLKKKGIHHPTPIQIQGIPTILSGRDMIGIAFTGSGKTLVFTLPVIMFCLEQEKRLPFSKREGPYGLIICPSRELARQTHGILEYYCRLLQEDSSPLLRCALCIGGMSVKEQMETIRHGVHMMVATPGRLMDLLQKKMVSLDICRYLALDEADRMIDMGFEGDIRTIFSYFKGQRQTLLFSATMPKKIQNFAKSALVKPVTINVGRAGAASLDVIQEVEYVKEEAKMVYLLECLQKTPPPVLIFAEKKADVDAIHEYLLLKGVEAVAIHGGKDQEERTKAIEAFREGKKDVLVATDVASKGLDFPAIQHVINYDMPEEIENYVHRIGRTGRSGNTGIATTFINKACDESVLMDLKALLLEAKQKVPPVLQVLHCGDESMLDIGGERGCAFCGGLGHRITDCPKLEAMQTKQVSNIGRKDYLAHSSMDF
UniProt Q9Y315: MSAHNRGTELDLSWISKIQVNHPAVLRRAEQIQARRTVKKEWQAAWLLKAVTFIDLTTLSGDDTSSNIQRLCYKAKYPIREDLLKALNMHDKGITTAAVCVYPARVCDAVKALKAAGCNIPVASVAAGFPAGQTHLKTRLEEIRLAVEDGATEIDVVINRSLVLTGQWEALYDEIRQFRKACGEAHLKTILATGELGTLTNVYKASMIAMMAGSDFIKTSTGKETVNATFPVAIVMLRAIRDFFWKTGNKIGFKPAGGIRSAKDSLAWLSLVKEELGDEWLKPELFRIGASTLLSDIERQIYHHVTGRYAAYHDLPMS
UniProt P11182, whole entry, looked up: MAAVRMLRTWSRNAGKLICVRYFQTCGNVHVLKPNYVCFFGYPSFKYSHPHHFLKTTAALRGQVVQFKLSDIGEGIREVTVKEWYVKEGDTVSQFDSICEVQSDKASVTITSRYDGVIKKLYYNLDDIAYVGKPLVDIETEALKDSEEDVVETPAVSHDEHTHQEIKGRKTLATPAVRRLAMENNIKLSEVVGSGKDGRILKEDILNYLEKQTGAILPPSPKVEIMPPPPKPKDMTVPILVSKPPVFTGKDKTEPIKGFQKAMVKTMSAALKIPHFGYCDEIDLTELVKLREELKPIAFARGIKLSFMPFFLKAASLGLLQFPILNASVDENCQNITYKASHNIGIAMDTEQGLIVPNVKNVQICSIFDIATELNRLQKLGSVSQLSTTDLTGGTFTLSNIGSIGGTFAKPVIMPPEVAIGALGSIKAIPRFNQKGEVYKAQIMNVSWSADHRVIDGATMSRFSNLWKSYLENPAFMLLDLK
UniProt P26196: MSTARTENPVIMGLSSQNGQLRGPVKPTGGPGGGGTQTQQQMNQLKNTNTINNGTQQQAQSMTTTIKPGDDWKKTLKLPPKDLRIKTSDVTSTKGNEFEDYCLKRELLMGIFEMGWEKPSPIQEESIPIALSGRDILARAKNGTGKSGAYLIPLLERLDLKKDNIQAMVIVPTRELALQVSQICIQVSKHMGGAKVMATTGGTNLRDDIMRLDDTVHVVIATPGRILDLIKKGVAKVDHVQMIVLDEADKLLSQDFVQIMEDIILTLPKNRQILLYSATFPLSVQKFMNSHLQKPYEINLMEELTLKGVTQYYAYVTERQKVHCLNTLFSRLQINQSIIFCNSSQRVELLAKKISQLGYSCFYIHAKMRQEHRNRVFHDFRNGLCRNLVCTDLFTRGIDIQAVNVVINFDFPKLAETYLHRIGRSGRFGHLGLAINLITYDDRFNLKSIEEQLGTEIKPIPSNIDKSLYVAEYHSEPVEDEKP
UniProt Q5VZ89: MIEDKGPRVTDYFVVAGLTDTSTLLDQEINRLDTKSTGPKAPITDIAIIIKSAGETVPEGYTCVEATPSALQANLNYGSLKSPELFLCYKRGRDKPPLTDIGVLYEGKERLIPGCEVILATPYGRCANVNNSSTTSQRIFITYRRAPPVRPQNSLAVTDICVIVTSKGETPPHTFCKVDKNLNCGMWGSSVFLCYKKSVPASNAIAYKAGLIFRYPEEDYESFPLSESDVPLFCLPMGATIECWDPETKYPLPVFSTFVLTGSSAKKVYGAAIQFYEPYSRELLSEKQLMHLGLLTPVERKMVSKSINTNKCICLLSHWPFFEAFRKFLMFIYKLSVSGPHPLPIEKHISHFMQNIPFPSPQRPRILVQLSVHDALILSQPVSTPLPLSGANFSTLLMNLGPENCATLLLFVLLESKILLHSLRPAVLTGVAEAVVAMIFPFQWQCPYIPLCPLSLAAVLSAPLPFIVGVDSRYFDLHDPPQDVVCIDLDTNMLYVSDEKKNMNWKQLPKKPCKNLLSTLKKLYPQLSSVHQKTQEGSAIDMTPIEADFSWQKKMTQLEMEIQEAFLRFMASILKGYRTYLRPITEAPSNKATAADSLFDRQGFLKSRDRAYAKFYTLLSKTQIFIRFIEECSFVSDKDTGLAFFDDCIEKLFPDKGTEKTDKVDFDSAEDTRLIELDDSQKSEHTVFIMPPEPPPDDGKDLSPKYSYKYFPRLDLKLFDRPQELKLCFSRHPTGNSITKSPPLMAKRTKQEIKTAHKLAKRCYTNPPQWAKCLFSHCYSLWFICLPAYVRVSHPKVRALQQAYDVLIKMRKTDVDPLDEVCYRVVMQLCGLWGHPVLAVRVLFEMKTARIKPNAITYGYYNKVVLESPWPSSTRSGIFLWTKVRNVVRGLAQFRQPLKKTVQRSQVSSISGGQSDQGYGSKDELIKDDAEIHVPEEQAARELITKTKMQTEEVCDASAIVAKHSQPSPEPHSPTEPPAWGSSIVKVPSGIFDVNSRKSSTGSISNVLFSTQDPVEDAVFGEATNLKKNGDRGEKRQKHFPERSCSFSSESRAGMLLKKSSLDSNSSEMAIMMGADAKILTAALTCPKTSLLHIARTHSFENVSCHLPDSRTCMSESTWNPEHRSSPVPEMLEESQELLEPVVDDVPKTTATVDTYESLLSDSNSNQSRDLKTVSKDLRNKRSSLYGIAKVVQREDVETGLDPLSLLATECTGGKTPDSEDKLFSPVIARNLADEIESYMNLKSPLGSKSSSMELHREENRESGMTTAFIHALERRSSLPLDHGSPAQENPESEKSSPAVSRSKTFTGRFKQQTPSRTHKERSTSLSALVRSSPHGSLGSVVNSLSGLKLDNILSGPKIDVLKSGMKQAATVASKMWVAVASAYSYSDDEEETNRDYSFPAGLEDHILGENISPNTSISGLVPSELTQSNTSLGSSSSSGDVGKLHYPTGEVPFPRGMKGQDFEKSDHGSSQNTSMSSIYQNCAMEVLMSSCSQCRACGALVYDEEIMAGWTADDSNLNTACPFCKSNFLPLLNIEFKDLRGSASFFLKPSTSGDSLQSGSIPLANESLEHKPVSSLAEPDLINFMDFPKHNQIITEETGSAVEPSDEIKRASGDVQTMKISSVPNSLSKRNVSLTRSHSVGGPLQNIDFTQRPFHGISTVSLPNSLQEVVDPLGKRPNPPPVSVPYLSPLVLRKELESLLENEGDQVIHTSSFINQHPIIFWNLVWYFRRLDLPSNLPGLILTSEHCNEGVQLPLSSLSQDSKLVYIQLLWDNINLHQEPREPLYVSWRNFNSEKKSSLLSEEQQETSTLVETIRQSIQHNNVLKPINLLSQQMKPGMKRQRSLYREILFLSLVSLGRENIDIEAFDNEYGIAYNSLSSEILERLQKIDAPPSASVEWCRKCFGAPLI

Assays:
Assay in all cases: log2 fold change, soluble protein after heating vs DMSO (PISA); higher = thermal stabilisation; K562 lysate, 10 uM; active = over 0.2 and 3.5 SD of the protein, either way, in both replicates (recomputed)
alvocidib = compound: CN1CC[C@H](c2c(O)cc(O)c3c(=O)cc(-c4ccccc4Cl)oc23)[C@H](O)C1 [alvocidib]
In short: (§1)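 Log-two fold change in thermal stability relative to solvent controls is reported from duplicates. For each sample, crude K562 extract from dounce-homogenised pellets in PBS pH 7.4 with 1 mM MgCl2, at 1 mg/mL protein, was treated with 10 μM compound for 30 min. Aliquots heated for 3 min across 48°C-58°C were pooled, brought to 0.5% NP-40 at 4°C and cleared at 21,000xg for 90 min. The supernatant was quantified by TMTpro 16plex LC-MS/MS with channel sums equalised.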

Tubastatin A = compound: CN1CCc2c(c3ccccc3n2Cc2ccc(C(=O)NO)cc2)C1 [Tubastatin A]
In short: as §1

[1] = compound: CNC(=O)C1=CC=CC=C1NC2=NC(=NC=C2Cl)NC3=C(C=C(C=C3)N4CCOCC4)OC
In short: as §1

defactinib = compound: CNC(=O)c1ccc(Nc2ncc(C(F)(F)F)c(NCc3nccnc3N(C)S(C)(=O)=O)n2)cc1 [defactinib]
In short: as §1

[2] = compound: CNc1nc(-c2ccc3c(N)n[nH]c3c2)cc(N2C[C@@H](C(=O)NC3CCCCC3)CC[C@H]2C)n1
In short: as §1

encorafenib = compound: COC(=O)N[C@@H](C)CNc1nccc(-c2cn(C(C)C)nc2-c2cc(Cl)cc(NS(C)(=O)=O)c2F)n1 [encorafenib]
In short: as §1

[3] = compound: COC(=O)[C@H](CCSC)NC(=O)C1=C(C=C(C=C1)NC[C@H](CS)N)C2=CC=CC=C2
In short: as §1

alisertib = compound: COc1cc(Nc2ncc3c(n2)-c2ccc(Cl)cc2C(c2c(F)cccc2OC)=NC3)ccc1C(=O)O [alisertib]
In short: as §1

[4] = compound: COc1cc2nc(-c3cc(F)ccc3O)nc(N[C@@H]3CNC[C@H]3C(C)(C)O)c2cc1OC
In short: as §1

gefitinib = compound: COc1cc2ncnc(Nc3ccc(F)c(Cl)c3)c2cc1OCCCN1CCOCC1 [gefitinib]
In short: as §1

lapatinib = compound: CS(=O)(=O)CCNCc1ccc(-c2ccc3ncnc(Nc4ccc(OCc5cccc(F)c5)c(Cl)c4)c3c2)o1 [lapatinib]
In short: as §1

pictilisib = compound: CS(=O)(=O)N1CCN(Cc2cc3nc(-c4cccc5[nH]ncc45)nc(N4CCOCC4)c3s2)CC1 [pictilisib]
In short: as §1

crizotinib = compound: C[C@@H](Oc1cc(-c2cnn(C3CCNCC3)c2)cnc1N)c1c(Cl)ccc(F)c1Cl [crizotinib]
In short: as §1

[5] = compound: C[C@H](C1=CC=C(C=C1)C(=O)NC2=C3C=CNC3=NC=C2)N
In short: as §1

duvelisib = compound: C[C@H](Nc1ncnc2nc[nH]c12)c1cc2cccc(Cl)c2c(=O)n1-c1ccccc1 [duvelisib]
In short: as §1

gandotinib = compound: Cc1cc(Nc2cc(CN3CCOCC3)c3nc(C)c(Cc4ccc(Cl)cc4F)n3n2)n[nH]1 [gandotinib]
In short: as §1

tozasertib = compound: Cc1cc(Nc2cc(N3CCN(C)CC3)nc(Sc3ccc(NC(=O)C4CC4)cc3)n2)n[nH]1 [tozasertib]
In short: as §1

doramapimod = compound: Cc1ccc(-n2nc(C(C)(C)C)cc2NC(=O)Nc2ccc(OCCN3CCOCC3)c3ccccc23)cc1 [doramapimod]
In short: as §1

bafetinib = compound: Cc1ccc(NC(=O)c2ccc(CN3CC[C@H](N(C)C)C3)c(C(F)(F)F)c2)cc1Nc1nccc(-c2cncnc2)n1 [bafetinib]
In short: as §1

[6] = compound: Cc1cccc(CC(=O)N2CCc3c2ccc(-c2cn(C)c4ncnc(N)c24)c3F)n1
In short: as §1

DCTN1 (UniProt Q14203)
log2 fold change (alvocidib): inactive: 0.03
log2 fold change (Tubastatin A): inactive: -0.048
log2 fold change [1]: inactive: 0.009
log2 fold change (defactinib): inactive: 0.008
log2 fold change [2]: inactive: -0.02
log2 fold change (encorafenib): inactive: 0.008
log2 fold change [3]: inactive: 0.119
log2 fold change (alisertib): inactive: -0.019
log2 fold change [4]: inactive: 0.01
log2 fold change (gefitinib): inactive: -0.002
log2 fold change (lapatinib): inactive: -0.005
log2 fold change (pictilisib): inactive: -0.021
log2 fold change (crizotinib): inactive: -0.005
log2 fold change [5]: inactive: 0.027
log2 fold change (duvelisib): inactive: 0.001
log2 fold change (gandotinib): inactive: -0.029
log2 fold change (tozasertib): inactive: -0.002
log2 fold change (doramapimod): inactive: -0.013
log2 fold change (bafetinib): inactive: -0.023
log2 fold change [6]: inactive: -0.005

DENND4B (UniProt O75064)
log2 fold change (alvocidib): inactive: -0.072
log2 fold change (Tubastatin A): inactive: 0.106
log2 fold change [1]: inactive: -0.006
log2 fold change (defactinib): inactive: -0.017
log2 fold change [2]: inactive: -0.012
log2 fold change (encorafenib): inactive: 0.021
log2 fold change [3]: inactive: 0.002
log2 fold change (alisertib): inactive: -0.059
log2 fold change [4]: inactive: 0.008
log2 fold change (gefitinib): inactive: 0.023
log2 fold change (lapatinib): inactive: -0.042
log2 fold change (pictilisib): inactive: -0.013
log2 fold change (crizotinib): inactive: -0.142
log2 fold change [5]: inactive: -0.089
log2 fold change (duvelisib): inactive: 0.004
log2 fold change (gandotinib): inactive: 0.084
log2 fold change (tozasertib): inactive: -0.025
log2 fold change (doramapimod): inactive: 0.013
log2 fold change (bafetinib): inactive: -0.023
log2 fold change [6]: inactive: 0.115

DCTD isoform 2 (UniProt P32321)
log2 fold change (alvocidib): inactive: 0.013
log2 fold change (Tubastatin A): inactive: -0.009
log2 fold change [1]: inactive: 0.022
log2 fold change (defactinib): inactive: 0.01
log2 fold change [2]: inactive: -0.003
log2 fold change (encorafenib): inactive: -0.024
log2 fold change [3]: inactive: -0.017
log2 fold change (alisertib): inactive: 0.026
log2 fold change [4]: inactive: -0.002
log2 fold change (gefitinib): inactive: -0.006
log2 fold change (lapatinib): inactive: -0.015
log2 fold change (pictilisib): inactive: -0.046
log2 fold change (crizotinib): inactive: 0.003
log2 fold change [5]: inactive: -0.021
log2 fold change (duvelisib): inactive: -0.018
log2 fold change (gandotinib): inactive: 0.029
log2 fold change (tozasertib): inactive: -0.035
log2 fold change (doramapimod): inactive: 0.019
log2 fold change (bafetinib): inactive: 0.011
log2 fold change [6]: inactive: -0.036

DDX41 (UniProt Q9UJV9)
log2 fold change (alvocidib): inactive: -0.016
log2 fold change (Tubastatin A): inactive: -0.136
log2 fold change [1]: inactive: 0.014
log2 fold change (defactinib): inactive: -0.015
log2 fold change [2]: inactive: 0.057
log2 fold change (encorafenib): inactive: -0.013
log2 fold change [3]: inactive: 0.046
log2 fold change (alisertib): inactive: -0.003
log2 fold change [4]: inactive: -0.002
log2 fold change (gefitinib): inactive: 0.001
log2 fold change (lapatinib): inactive: 0.019
log2 fold change (pictilisib): inactive: 0.015
log2 fold change (crizotinib): inactive: -0.051
log2 fold change [5]: inactive: -0.03
log2 fold change (duvelisib): inactive: -0.02
log2 fold change (gandotinib): inactive: 0.009
log2 fold change (tozasertib): inactive: -0.049
log2 fold change (doramapimod): inactive: 0.042
log2 fold change (bafetinib): inactive: 0.002
log2 fold change [6]: inactive: 0.059

DERA (UniProt Q9Y315)
log2 fold change (alvocidib): inactive: 0.121
log2 fold change (Tubastatin A): inactive: 0.018
log2 fold change [1]: inactive: 0.033
log2 fold change (defactinib): inactive: -0.003
log2 fold change [2]: inactive: 0.085
log2 fold change (encorafenib): inactive: -0.005
log2 fold change [3]: inactive: -0.053
log2 fold change (alisertib): inactive: -0.059
log2 fold change [4]: inactive: -0.01
log2 fold change (gefitinib): inactive: 0.087
log2 fold change (lapatinib): inactive: -0.002
log2 fold change (pictilisib): inactive: -0.028
log2 fold change (crizotinib): inactive: -0.015
log2 fold change [5]: active: 0.732
log2 fold change (duvelisib): inactive: -0.004
log2 fold change (gandotinib): inactive: -0.072
log2 fold change (tozasertib): inactive: -0.028
log2 fold change (doramapimod): inactive: -0.001
log2 fold change (bafetinib): inactive: 0.012
log2 fold change [6]: inactive: -0.132

DBT (UniProt P11182)
log2 fold change (alvocidib): inactive: 0.015
log2 fold change (Tubastatin A): inactive: 0.026
log2 fold change [1]: inactive: 0.029
log2 fold change (defactinib): inactive: 0.005
log2 fold change [2]: inactive: -0.049
log2 fold change (encorafenib): inactive: 0.03
log2 fold change [3]: inactive: -0.064
log2 fold change (alisertib): inactive: -0.015
log2 fold change [4]: inactive: -0.012
log2 fold change (gefitinib): inactive: -0.008
log2 fold change (lapatinib): inactive: 0.006
log2 fold change (pictilisib): inactive: -0.037
log2 fold change (crizotinib): inactive: -0.022
log2 fold change [5]: inactive: -0.024
log2 fold change (duvelisib): inactive: 0.022
log2 fold change (gandotinib): inactive: 0.006
log2 fold change (tozasertib): inactive: 0.033
log2 fold change (doramapimod): inactive: -0.003
log2 fold change (bafetinib): inactive: -0.037
log2 fold change [6]: inactive: -0.02

DDX6 (UniProt P26196)
log2 fold change (alvocidib): inactive: 0.006
log2 fold change (Tubastatin A): inactive: -0.007
log2 fold change [1]: inactive: 0.014
log2 fold change (defactinib): inactive: -0.008
log2 fold change [2]: inactive: 0.02
log2 fold change (encorafenib): inactive: 0.001
log2 fold change [3]: inactive: 0.005
log2 fold change (alisertib): inactive: -0.012
log2 fold change [4]: inactive: -0.005
log2 fold change (gefitinib): inactive: 0.002
log2 fold change (lapatinib): inactive: 0.003
log2 fold change (pictilisib): inactive: -0.015
log2 fold change (crizotinib): inactive: 0.003
log2 fold change [5]: inactive: -0.005
log2 fold change (duvelisib): inactive: 0.007
log2 fold change (gandotinib): inactive: -0.011
log2 fold change (tozasertib): inactive: -0.002
log2 fold change (doramapimod): inactive: 0.002
log2 fold change (bafetinib): inactive: 0.007
log2 fold change [6]: inactive: 0.006

DENND4C (UniProt Q5VZ89)
log2 fold change (alvocidib): inactive: -0.021
log2 fold change (Tubastatin A): inactive: -0.037
log2 fold change [1]: inactive: 0
log2 fold change (defactinib): inactive: 0.028
log2 fold change [2]: inactive: 0.012
log2 fold change (encorafenib): inactive: 0.064
log2 fold change [3]: inactive: 0.043
log2 fold change (alisertib): inactive: 0.02
log2 fold change [4]: inactive: 0.016
log2 fold change (gefitinib): inactive: 0.02
log2 fold change (lapatinib): inactive: 0.066
log2 fold change (pictilisib): inactive: 0.006
log2 fold change (crizotinib): inactive: -0.043
log2 fold change [5]: inactive: -0.006
log2 fold change (duvelisib): inactive: -0.001
log2 fold change (gandotinib): inactive: 0.002
log2 fold change (tozasertib): inactive: 0.004
log2 fold change (doramapimod): inactive: 0.021
log2 fold change (bafetinib): inactive: -0.041
log2 fold change [6]: inactive: 0.01
